This is an account of results in publication PMC9532395.

Amino acid sequences for entries named in this document (tags omitted).
UniProt O60260: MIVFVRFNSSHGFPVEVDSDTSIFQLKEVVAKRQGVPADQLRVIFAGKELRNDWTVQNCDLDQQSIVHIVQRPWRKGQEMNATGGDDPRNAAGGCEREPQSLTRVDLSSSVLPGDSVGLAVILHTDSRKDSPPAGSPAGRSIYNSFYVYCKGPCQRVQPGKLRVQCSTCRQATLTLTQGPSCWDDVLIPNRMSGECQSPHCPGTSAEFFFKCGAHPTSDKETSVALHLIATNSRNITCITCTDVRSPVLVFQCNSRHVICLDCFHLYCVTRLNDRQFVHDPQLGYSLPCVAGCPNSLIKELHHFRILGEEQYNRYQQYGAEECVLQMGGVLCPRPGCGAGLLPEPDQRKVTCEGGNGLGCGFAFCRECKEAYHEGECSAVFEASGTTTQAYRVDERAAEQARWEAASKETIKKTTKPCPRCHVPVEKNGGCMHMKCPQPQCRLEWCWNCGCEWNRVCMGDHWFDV
UniProt Q07812: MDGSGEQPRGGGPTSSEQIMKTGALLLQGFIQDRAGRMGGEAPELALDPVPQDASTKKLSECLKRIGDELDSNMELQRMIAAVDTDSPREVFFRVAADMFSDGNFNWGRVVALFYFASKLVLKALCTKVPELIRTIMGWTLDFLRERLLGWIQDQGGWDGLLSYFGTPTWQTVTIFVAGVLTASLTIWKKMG

In this test the target is T1, Flag-CRABP2 (cellular retinoic acid binding protein 2) (UniProt P29373).
T1 sequence: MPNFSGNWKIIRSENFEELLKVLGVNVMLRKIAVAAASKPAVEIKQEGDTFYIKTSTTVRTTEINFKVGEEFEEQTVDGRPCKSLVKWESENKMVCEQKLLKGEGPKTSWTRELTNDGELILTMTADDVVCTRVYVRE
Description: affinity purification with mass spectrometry; Co-IP from Flag-CRABP2 plasmid-transfected AGS cells, SDS-PAGE, LC/LC-MS of the CRABP2 protein complex.

Results are given in words; binding and its absence hold for the method and conditions named. In cells and extracts the contact can be indirect. A yes stands for co-enrichment or nearness to the bait. Other partners may have been found. Where a sequence is shown, tags or fusion partners need not be part of it.

With “E3 ubiquitin-protein ligase parkin (from UniProt O60260 1-465)”, the binding result was “binds”.

As for “apoptosis regulator BAX (from UniProt Q07812 1-192)”, the binding entry was “binds”.
